PubChem BioAssay AID743454 | Peter MacCallum Cancer Centre | 2014
Screen: 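Search for knock-downs that restore vorinostat killing in resistant colon cancer cells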 (primary screen). System: human HCT116-VR colon cancer cells, selected for vorinostat resistance. Knock-down reagent: siRNA pool against human genes, 40 nM siRNA pool. Timing: vorinostat for 24 h, read-out about 72 h after transfection. Treatment: vorinostat at 2.5 µM final. Measurement: 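Cell viability by CellTiter-Fluor and caspase 3/7 activity by luminescence, each scaled to mock wells per plate, duplicates averaged, then robust z-scored over all plates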. Reading the numbers: viability robust z-score: higher = more viable cells than screen typical; caspase robust z-score: higher = more caspase 3/7 activity than screen typical. Active means: 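a knock-down is a hit when classed RV1 or RV2 for lowered viability, or CA1 or CA2 for caspase activation; those lethal without drug were dropped; hits were retested singly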.
The deposit covers about 18,000 reagents; this is a random part of them. 450 of them (2.5%) count as active. 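Single biological run; no consistent viability z cut-off exists, so the class columns, not z-scores, define the calls.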

The first 2 entries, ahead of the listing:
{"gene": "THOC6", "viability hit class": "no change", "caspase hit class": "no change", "viability robust z-score": 0.26, "caspase robust z-score": -0.19, "Call": "inactive"}
{"gene": "PPP2R2B", "viability hit class": "no change", "caspase hit class": "no change", "viability robust z-score": 0.24, "caspase robust z-score": -0.54, "Call": "inactive"}

Results, repeating the preview:
{"gene": "THOC6", "viability hit class": "no change", "caspase hit class": "no change", "viability robust z-score": 0.26, "caspase robust z-score": -0.19, "Call": "inactive"}
{"gene": "PPP2R2B", "viability hit class": "no change", "caspase hit class": "no change", "viability robust z-score": 0.24, "caspase robust z-score": -0.54, "Call": "inactive"}
{"gene": "PALLD", "viability hit class": "no change", "caspase hit class": "no change", "viability robust z-score": 0.32, "caspase robust z-score": 0.27, "Call": "inactive"}
{"gene": "ARIH2", "viability hit class": "no change", "caspase hit class": "no change", "viability robust z-score": -0.84, "caspase robust z-score": 2.16, "Call": "inactive"}
{"gene": "FAM177B", "viability hit class": "no change", "caspase hit class": "CA2 (caspase activation)", "viability robust z-score": -4.88, "caspase robust z-score": 7.11, "Call": "active"}
{"gene": "RNF135", "viability hit class": "no change", "caspase hit class": "no change", "viability robust z-score": -0.85, "caspase robust z-score": 1.42, "Call": "inactive"}
{"gene": "TPRG1", "viability hit class": "no change", "caspase hit class": "no change", "viability robust z-score": 0.4, "caspase robust z-score": -0.75, "Call": "inactive"}
{"gene": "CABS1", "viability hit class": "no change", "caspase hit class": "no change", "viability robust z-score": 0.1, "caspase robust z-score": -0.02, "Call": "inactive"}
{"gene": "ZNF16", "viability hit class": "no change", "caspase hit class": "no change", "viability robust z-score": -1.02, "caspase robust z-score": 3.93, "Call": "inactive"}
{"gene": "AADAT", "viability hit class": "no change", "caspase hit class": "no change", "viability robust z-score": 1.09, "caspase robust z-score": -0.16, "Call": "inactive"}
{"gene": "SPOP", "viability hit class": "no change", "caspase hit class": "no change", "viability robust z-score": -0.74, "caspase robust z-score": -0.91, "Call": "inactive"}
{"gene": "SSR2", "viability hit class": "no change", "caspase hit class": "no change", "viability robust z-score": 1.03, "caspase robust z-score": -0.47, "Call": "inactive"}
{"gene": "IFNA21", "viability hit class": "no change", "caspase hit class": "no change", "viability robust z-score": -1.81, "caspase robust z-score": -0.74, "Call": "inactive"}
{"gene": "PAGE5", "viability hit class": "no change", "caspase hit class": "no change", "viability robust z-score": -0.16, "caspase robust z-score": 1.11, "Call": "inactive"}
